Source: PMC10712050

The chains behind the UniProt entries cited, without tags or fusion partners. Where a name states a change or a piece, a line headed by the entry shows the natural chain unless it says otherwise.
UniProt P03953: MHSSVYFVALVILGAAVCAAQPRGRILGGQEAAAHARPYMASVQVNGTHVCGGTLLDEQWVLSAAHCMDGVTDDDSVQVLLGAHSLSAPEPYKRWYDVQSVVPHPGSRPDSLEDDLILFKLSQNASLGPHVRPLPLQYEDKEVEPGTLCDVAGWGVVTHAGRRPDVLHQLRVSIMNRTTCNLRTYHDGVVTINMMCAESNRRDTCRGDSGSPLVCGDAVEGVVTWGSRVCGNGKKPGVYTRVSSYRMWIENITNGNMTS

Target: GST-Adipsin fusion protein (UniProt P03953)
Assay: affinity purification with mass spectrometry; GST-Adipsin immobilised on glutathione agarose (Pierce GST Protein Interaction Pull Down kit), prey from primary cardiomyocyte lysate, eluted complexes analysed by LC-MS/MS; only the target purified

B1: interleukin-1 receptor-associated kinase-like 2 (Irak2) (protein, UniProt Q8CFA1 1-622)
chain: MACYIYQLPSWVLDDLCRNIDTLSEWDWMQFASYVITDLTQLRKIKSMERVQGVSITRELLWWWSMRQATVQQLVDLLCHLELYRAAQIVLSWKPVPESTSPLPAFPEAVKPGAVATSRRNLKDEQEKVRPVKPRSLLDTGPIMAGAQRQRPCEMDAPCSLKTDAPDSPQSKYCSTSTSAPKQERLLGLPGDRLFWSEADVVQATEDFDQSHRISEGTFADIYQGQRNGVAFAFKKLREVAGSSPGSMDRFLQAEMQLCLRCCHANVLPLLGFCTGRQFHSLIYPYMANGSLHDRLWAQGNSDMLPWPQRASICSGLLLAVEHLHSLDIIHSNVKSANVLLDQHLNPKLAHPVAHPHPDNKKTKYTVMRTHLFQASAAYLPEHFIRVGQLTKQVDIFSCGIVLAEVLTGIPAMDKDRSPVYLKDLLLSEIPNSTSSVCSRKTSMGKAVVKEICQRHVEKRAGLLPEACEEAWATAVSVCLRRRNASVEEARVSLAGVEEQLRGQLSLPWSRVSEATGSSSNTPEETDDVDNSSLSVPSLVMMASCPGAASSPLFTGHGAAQPSTSGRQEADSSSEACTGPQTPQNATETSWKIEINEAKRRLMENIVLYKEERLDSSELFGP
  binding: binds

No constants are given. Whether binding was seen depends on the method and setting. In cells and extracts the contact can be indirect. These calls come from enrichment with a bait or labelling near it, and not all partners need be listed.
